# Experimental data from PubChem BioAssay (NCATS).
# Some of the results follow. The main result of the screen is listed elsewhere. These columns were measured beside it and carry no call. Compounds called inactive in the main read-out are mostly missing here.
# Experiment: qHTS for identification of novel therapeutic agents for treatment of microphthalmiaassociated transcription factor (MiT) renal cell carcinoma (RCC) (AID 1963991)
# Details: TFE3-RCC viability, CellTiter-Glo, 48 h; measured here: UOK124 Z-AUC; stronger effect = lower value
# Summary of the method: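 Viability of three TFE3-fusion renal carcinoma lines measured by CellTiter-Glo after 48 h treatment with each of 1912 compounds at 11 concentrations. Responses scaled between DMSO (100%) and empty wells (0%) before curve fitting.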
row,Structure (SMILES),z-score
1,CC(=O)c1c(C)c2cnc(Nc3ccc(N4CCNCC4)cn3)nc2n(C2CCCC2)c1=O,-0.155
2,CC(C)=CCCC(C)=CCCC(C)=CCSc1ccccc1C(=O)O,0.697
3,CC1(O)CC(c2nc(-c3ccc4ccc(-c5ccccc5)nc4c3)c3c(N)nccn23)C1 (centres undefined),-0.825
4,CC(=O)N1CCN(c2ccc(OCc3nn(C)c(C)c3-c3cccc4c(CCCOc5cc(C)c(Cl)c(C)c5)c(C(=O)O)n(Cc5cccnc5)c34)cc2)CC1,0.531
5,CN(C)CCOc1ccc(-c2nc(-c3ccc4c(c3)CCC4=NO)c(-c3ccncc3)[nH]2)cc1,0.371
6,CC1CCN(c2cc(N3CCN(C)CC3)ccc2NC(=O)c2cc(C#N)c[nH]2)CC1,-0.647
7,CC(C)c1c(C(=O)Nc2ccccc2)c(-c2ccccc2)c(-c2ccc(F)cc2)n1CC[C@H](O)C[C@@H](O)CC(=O)O,-0.186
8,C=Cc1c(C)c2cc3nc(cc4[nH]c(cc5nc(cc1[nH]2)C(C)=C5CCC(=O)O)c(CCC(=O)OC)c4C)[C@@]1(C)C3=CC=C(C(=O)OC)[C@H]1C(=O)OC,-0.687
9,O=S(=O)(NCCNCC=Cc1ccc(Br)cc1)c1cccc2cnccc12,1.29
10,CNC(=O)c1cc(COc2nnc(Nc3ccc(Cl)cc3)c3ccoc23)ccn1,-0.0462
11,CC[C@H](Nc1ncnc2nc[nH]c12)c1nc2cccc(F)c2c(=O)n1-c1ccccc1,2.04
12,C[C@@]1(c2cc(-c3cncnc3)c(F)cc2F)CCSC(N)=N1,0.0917
13,CCN(CC)CCCCNc1nc2cc(Cl)c(Cl)cc2nc1-c1ccc(-c2cccs2)s1,-0.432
14,Nc1ccn([C@@H]2O[C@H](CO)[C@@H](O)[C@H]2O)c(=O)n1,-0.0937
15,COc1cc(C[C@@H](CO)[C@H](CO)Cc2ccc(O)c(OC)c2)ccc1O,-0.403
16,CN(C)CC=CC(=O)Nc1cc2c(Nc3ccc(F)c(Cl)c3)ncnc2cc1O[C@H]1CCOC1,-1.69
17,CNC(=O)c1c(-c2ccc(F)cc2)oc2cc(N(CCO)S(C)(=O)=O)c(C3CC3)cc12,-1.41
18,O=c1[nH]c(=O)n([C@H]2C[C@@H](O)[C@@H](CO)O2)cc1C(F)(F)F,-0.157
19,CC(C)(N)C(=O)N[C@H](COCc1ccccc1)C(=O)N1CCC2(CC1)CN(S(C)(=O)=O)c1ccccc12,0.697
20,N#CC(c1ccnc(NCCc2cccnc2)n1)c1nc2ccccc2s1 (centres undefined),-0.237

row,Structure (SMILES),z-score
1,COc1ccc(COc2cc3oc(=O)c4cc(C(C)O)ccc4c3cc2OC)cc1 (centres undefined),2.18
2,O=C1NC(=O)C(=Cc2ccc(-c3ccc(F)cc3O)o2)S1,-0.173
3,CCOC(=O)N1CCN([N+]([O-])=NOc2cc(ON=[N+]([O-])N3CCN(C(=O)OCC)CC3)c([N+](=O)[O-])cc2[N+](=O)[O-])CC1,0.201
4,C[C@@H]1[C@H](O)[C@@H](C)C=CC=CC=CC=CC=CC=CC=C[C@H](O[C@@H]2O[C@H](C)[C@H](O)[C@H](N)[C@@H]2O)C[C@@H]2O[C@](O)(C[C@@H](O)C[C@@H](O)[C@H](O)CC[C@@H](O)C[C@@H](O)CC(=O)O[C@H]1C)C[C@H](O)[C@@H]2C(=O)O,0.943
5,CN1CCCN(C(=O)c2cccc(-c3ccc(C=C4C(=O)Nc5ccc(Cl)cc54)o3)c2)CC1,-0.878
6,CCOC(=O)N1CCN([N+]([O-])=NOc2ccc([N+](=O)[O-])cc2C#N)CC1,-0.331
7,CN(C)S(=O)(=O)c1ccc2c(c1)C(=Cc1cc3c([nH]1)CCCC3)C(=O)N2,0.387
8,C[C@@H]1C[C@H]2[C@@H]3CCC4=CC(=O)C=C[C@]4(C)[C@@]3(Cl)[C@@H](O)C[C@]2(C)[C@@]1(OC(=O)c1ccco1)C(=O)CCl,0.327
9,CC(C=CC=C(C)C=CC1=C(C)CCCC1(C)C)=CC=CC=C(C)C=CC=C(C)C=CC1=C(C)CCCC1(C)C,-0.043
10,Cn1cnc(=N)c2[nH]cnc21,0.336
11,CCn1c(-c2nonc2N)nc2c(C#CC(C)(C)O)ncc(OC[C@H]3CCCNC3)c21,-2.79
12,O=C(C=Cc1cccc(S(=O)(=O)Nc2ccccc2)c1)NO,-1.14
13,CC(=O)ON=C1C(c2c(O)[nH]c3cc(Br)ccc23)=Nc2ccccc21,-0.398
14,CS(=O)(=O)Oc1ccc2c(NC(N)=O)c(C(=O)c3ccc(Cl)cc3Cl)oc2c1,-0.0468
15,Nc1ncn([C@@H]2O[C@H](CO)[C@@H](O)[C@@H]2O)c(=O)n1,-0.197
16,CN(C)CC(C)(C)CNc1nn2c(-c3ccccc3)nnc2cc1C1CCC1,-1.2
17,COc1cc([C@@H]2c3cc4c(cc3[C@@H](O[C@@H]3O[C@@H]5CO[C@@H](c6cccs6)O[C@@H]5[C@H](O)[C@@H]3O)[C@H]3COC(=O)[C@H]23)OCO4)cc(OC)c1O,-0.914
18,C[C@]1(CO)CN(c2cc(C(=O)Nc3ccc4c(c3)-c3c(c(C(N)=O)nn3-c3ccc(F)cc3)CC4)c(Cl)cn2)C[C@@]1(C)CO,0.302
19,O=C(O)c1ccc(-c2cc3cccnc3c(-c3ccc4nonc4c3)n2)cc1,-0.0934

# Ordered by molar mass (largest number first): some entries from above
row,Structure (SMILES),z-score
9,CC(C=CC=C(C)C=CC1=C(C)CCCC1(C)C)=CC=CC=C(C)C=CC=C(C)C=CC1=C(C)CCCC1(C)C,-0.043
11,CC[C@H](Nc1ncnc2nc[nH]c12)c1nc2cccc(F)c2c(=O)n1-c1ccccc1,2.04
13,CC(=O)ON=C1C(c2c(O)[nH]c3cc(Br)ccc23)=Nc2ccccc21,-0.398
